These are yes or no findings as the source states them, for the method shown. Some binding calls cover weakened binding; strength is not graded here.

Assay [1] addresses T1, domain B-deleted PLXDC1 (on transfected cells) (human) (UniProt Q8IUK5).
T1 sequence: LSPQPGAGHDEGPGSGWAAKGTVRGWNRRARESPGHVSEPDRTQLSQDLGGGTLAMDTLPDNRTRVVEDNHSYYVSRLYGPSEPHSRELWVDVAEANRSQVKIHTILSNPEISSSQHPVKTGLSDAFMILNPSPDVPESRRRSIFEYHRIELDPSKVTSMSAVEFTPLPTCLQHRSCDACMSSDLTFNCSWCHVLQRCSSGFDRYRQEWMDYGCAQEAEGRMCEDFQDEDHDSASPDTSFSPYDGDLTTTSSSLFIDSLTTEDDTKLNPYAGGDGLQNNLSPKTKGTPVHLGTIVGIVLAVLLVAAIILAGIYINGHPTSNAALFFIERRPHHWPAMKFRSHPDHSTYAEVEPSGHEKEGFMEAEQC
The assay is described as follows: antibody staining of transfected cells.

Assay [2] deals with T1, domain B-deleted PLXDC1 (on transfected cells) (human). The assay is described as follows: staining of transfected cells with 20 nM antibody, fluorescence microscopy.

B1: 3-G7 (antibody, V domains shown)
VH: QVQLVQSGAEVKKPGSSVKVSCKASGGTFSTEYISWVRQAPGQGLEWMGRIIPVLGITNYAQKFQGRVTITADESTSTAYMELSSLRSEDTAVYYCARHLGPPYLVTYSHGFDVWGQGTLVTVSS
VL: EIVMTQSPATLSVSPGERATLSCRASQSLGTNLAWYQQKPGQAPRLLIYGASTRATGIPARFSGSGSGTEFTLTISSLQSEDFAVYYCQQYYEAPPTFGQGTKVEIK
As for B1, the binding result in assay [1] and in assay [2] was “binds” in each case.

For the origin of these results see patent US20210147525A1 (University of California, published 2021).
